Data source: PubChem BioAssay AID1224830 (NIAID, 2016)

- Assay: 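Regulators of TLR4 signalling towards TNF-alpha in macrophage-like cells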 (primary screen)
- Cells: human THP-1 monocytic leukaemia cells, TNF dual-luciferase reporter clone, PMA-differentiated to macrophage-like cells
- Knock-down reagent: siRNA pool against human genes, 50 nM
- Time to read-out: LPS for 4 h, given about 3 days after siRNA transfection
- Conditions: bacterial LPS (TLR4 ligand), 10 ng/ml
- Measurement: 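TNF firefly reporter luminescence divided by renilla, normalised to the plate median, then turned into a robust z-score for each replicate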
- Reading the numbers: TNF reporter robust z-score: higher = stronger TNF reporter response to LPS
- Active means: 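a well is active when its z-score exceeds 2.8 or falls below -1.5; control wells carry no call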
The whole screen tested about 18,000 reagents; shown is an unselected part. About 2,900 of all reagents (16%) were called active. 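Calls are made per well; low scores hint the gene aids the LPS response, high scores that it dampens it.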 Repeated entries: four replicate wells of each siRNA pool. No sequences are given here.

CLEC1B [SID315456595]
- Call: inactive

CLEC1B [SID315456595]
- TNF reporter robust z-score: -0.22
- Call: inactive

CLEC1B [SID315456595]
- TNF reporter robust z-score: 0.83
- Call: inactive

CLEC1B [SID315456595]
- TNF reporter robust z-score: 0.3
- Call: inactive

CLEC1B [SID315456595]
- TNF reporter robust z-score: 0.57
- Call: inactive

ICMT [SID315455258]
- TNF reporter robust z-score: -0.61
- Call: inactive

ICMT [SID315455258]
- TNF reporter robust z-score: 1.02
- Call: inactive

ICMT [SID315455258]
- TNF reporter robust z-score: 0.29
- Call: inactive

ICMT [SID315455258]
- TNF reporter robust z-score: 0.47
- Call: inactive

THOC7 [SID315459666]
- TNF reporter robust z-score: -1.2
- Call: inactive

THOC7 [SID315459666]
- TNF reporter robust z-score: -1.09
- Call: inactive

THOC7 [SID315459666]
- TNF reporter robust z-score: -0.57
- Call: inactive

THOC7 [SID315459666]
- TNF reporter robust z-score: -0.11
- Call: inactive

AP3D1 [SID315452946]
- TNF reporter robust z-score: -1.18
- Call: inactive

AP3D1 [SID315452946]
- TNF reporter robust z-score: -0.28
- Call: inactive

AP3D1 [SID315452946]
- TNF reporter robust z-score: -0.18
- Call: inactive

SPOCK3 [SID315456377]
- TNF reporter robust z-score: -0.1
- Call: inactive

SPOCK3 [SID315456377]
- TNF reporter robust z-score: -0.43
- Call: inactive

SPOCK3 [SID315456377]
- TNF reporter robust z-score: -0.19
- Call: inactive

SPOCK3 [SID315456377]
- TNF reporter robust z-score: -0.03
- Call: inactive

GZF1 [SID315458919]
- TNF reporter robust z-score: -1.05
- Call: inactive

GZF1 [SID315458919]
- TNF reporter robust z-score: -0.76
- Call: inactive

GZF1 [SID315458919]
- TNF reporter robust z-score: -0.66
- Call: inactive

GZF1 [SID315458919]
- TNF reporter robust z-score: -1.25
- Call: inactive

IQCE [SID315455136]
- TNF reporter robust z-score: 0.98
- Call: inactive

IQCE [SID315455136]
- TNF reporter robust z-score: 1.67
- Call: inactive

IQCE [SID315455136]
- TNF reporter robust z-score: 1.41
- Call: inactive

IQCE [SID315455136]
- TNF reporter robust z-score: 1.49
- Call: inactive

ZNF322 [SID315459387]
- Call: inactive

ZNF322 [SID315459387]
- TNF reporter robust z-score: -0.76
- Call: inactive

ZNF322 [SID315459387]
- TNF reporter robust z-score: -0.81
- Call: inactive

ZNF322 [SID315459387]
- TNF reporter robust z-score: -0.92
- Call: inactive

ZNF322 [SID315459387]
- TNF reporter robust z-score: -0.63
- Call: inactive

Sorted by “TNF reporter robust z-score” (ascending): 5 of the entries above
GZF1 [SID315458919]
- TNF reporter robust z-score: -1.05
- Call: inactive

SPOCK3 [SID315456377]
- TNF reporter robust z-score: -0.43
- Call: inactive

SPOCK3 [SID315456377]
- TNF reporter robust z-score: -0.19
- Call: inactive

SPOCK3 [SID315456377]
- TNF reporter robust z-score: -0.1
- Call: inactive

SPOCK3 [SID315456377]
- TNF reporter robust z-score: -0.03
- Call: inactive
